At least one structure is not confirmed: it was looked up by name or label, or the drawing left a doubt.
Key:
[1] = test system: human Mcl-1 5′-flanking sequence; assay: Transient luciferase expression assay of Mcl-1 reporter plasmids in K-562 cells; format: cell-based
From the text: A 1.7 kilobase (kb) XbaI/XmaI human Mcl-1 genomic fragment representing nucleotide residues −1656 to +160, where +1 denotes the major transcriptional start site, along with a 14 base pair (bp) adapter ligated to its 3′ end to place the luciferase gene in the correct reading frame, was inserted into NheI and HindIII digested pGL2-Basic luciferase reporter vector (Promega; Madison Wis.), yielding p(−1656)Mcl-1luc.
A series of 5′-deleted plasmids were constructed by double digestion of p(−1656)Mcl-1luc with SmaI, which cuts just upstream of the Mcl-1 insert, and restriction enzymes known to cut at unique sites within the Mcl-1 insert. […] Additional plasmids were constructed using PCR, including p(−107)Mcl-1luc, p(−51)Mcl-1luc, and p(+11)Mcl-1luc; the PCR products were sequenced to confirm their identity.
Specific mutations were introduced into the p(−162)Mcl-1luc plasmid using a two stage PCR method of Chen and Boxer (supra, 1995). The Ets site at nucleotides −129 to −121 was converted from CCGGAAGC (SEQ ID NO: 4) to CCTTAAGC (SEQ ID NO: 5;ΔEts); the Sp1 site at nucleotides −118 to −113 was converted from CCGCCC (SEQ ID NO: 6) to CTGACC (SEQ ID NO: 7;ΔSp1); and the SRE at nucleotides −106 to −97 was converted from CCTTTTATGG (SEQ ID NO:8) to CCTTCGGCTG (SEQ ID NO: 9;ΔSRE); altered nucleotides are indicated in bold type. All mutations were verified by sequencing. The PCR products containing the desired mutations were digested with BstEII and EcoRI, and ligated into the p(−162)Mcl-1luc plasmid, which had been digested with the same enzymes. […]
In most experiments, a human growth hormone reporter plasmid, pCMVhGH (10 μg), was used as a control for transfection efficiency. pCMVhGH yielded a linear increase in activity upon transfection with 2 to 10 μg plasmid, where activity with 2 μg of plasmid was near the limit of sensitivity of the hGH assay, but activity with 5 to 10 μg was sufficiently above background to be accurately quantified. […]

[2] = test system: human Mcl-1 5′-flanking sequence; assay: Transient luciferase expression assay of Mcl-1 reporter plasmids in other myeloid cell lines; format: cell-based; details: other cell lines (ML-1, U-937, THP-1, Namalwa)
[3] = test system: Mcl-1; details: ML-1 cells; at about 3 hours; cited from earlier work

For `CCCCCCCCCCCCCC(=O)O[C@@H]1[C@@H](C)[C@@]2(O)[C@@H](C=C(CO)C[C@]3(O)C(=O)C(C)=C[C@@H]23)[C@@H]2C(C)(C)[C@]12OC(C)=O` [TPA, 12-O-tetradecanoylphorbol acetate], the “increase in activity in the presence of TPA” value ([1]; all plasmid constructs of the 5′ deletion series) was 9-fold to 11-fold, the “induction by TPA” value ([1]; longer 5′-flanking sequence (FIG. 3A experiments)) was 10-fold to 12-fold and the “induction by TPA in the absence of the ERK inhibitor” value ([1]; p(−1656)Mcl-1luc or p(−162)Mcl-1luc) was 7.6-fold to 11.8-fold. For the same molecule, the “increase in luciferase activity by TPA” value [2] was 2-fold to 3-fold and the “maximum increase in Mcl-1 mRNA above basal levels” value [3] was 7-fold to 10-fold.
